Experiment [1] has as its target T1, NUP62 (mouse (endogenous in NIH3T3 cells and BMDCs)) (UniProt Q63850).
T1 sequence: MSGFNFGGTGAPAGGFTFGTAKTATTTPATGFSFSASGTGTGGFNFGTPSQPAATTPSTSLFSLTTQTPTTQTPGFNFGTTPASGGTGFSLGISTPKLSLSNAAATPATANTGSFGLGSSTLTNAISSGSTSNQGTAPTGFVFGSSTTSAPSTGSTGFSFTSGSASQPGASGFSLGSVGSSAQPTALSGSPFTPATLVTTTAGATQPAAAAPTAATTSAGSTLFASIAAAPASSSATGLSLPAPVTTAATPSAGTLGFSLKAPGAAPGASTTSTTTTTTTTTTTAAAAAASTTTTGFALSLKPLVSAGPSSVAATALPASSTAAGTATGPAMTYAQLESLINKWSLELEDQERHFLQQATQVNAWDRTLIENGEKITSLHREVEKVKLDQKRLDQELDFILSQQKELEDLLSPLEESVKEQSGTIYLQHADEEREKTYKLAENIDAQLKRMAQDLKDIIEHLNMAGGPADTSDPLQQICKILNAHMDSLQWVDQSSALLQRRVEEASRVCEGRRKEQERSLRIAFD
In words: proximity ligation.

Experiment [2] addresses T1, NUP62 (mouse (endogenous in NIH3T3 cells and BMDCs)). The experiment in a line: proximity ligation. This is another data set of the same source.

Like-named read-outs stand apart in the source and are kept apart here. Results are given in words; binding and its absence hold for the method and conditions named. Binding seen in cells or lysates may run through a third protein. Binding calls can cover weak binding; strength is not graded here.

As for “Moloney murine leukemia virus capsid protein (p30)”, the binding result in experiment [1] and in experiment [2] was “binds” in each case.
